# Source: patent US5849691A, “Peptidomimetic inhibitors of cathepsin D and plasmepsins I and II” (The United States of America as represented by the …, priority 1996, dated 1998)
# The chains behind the UniProt entries cited, without tags or fusion partners. Residues count along the entry.
# UniProt P07339, 65-412: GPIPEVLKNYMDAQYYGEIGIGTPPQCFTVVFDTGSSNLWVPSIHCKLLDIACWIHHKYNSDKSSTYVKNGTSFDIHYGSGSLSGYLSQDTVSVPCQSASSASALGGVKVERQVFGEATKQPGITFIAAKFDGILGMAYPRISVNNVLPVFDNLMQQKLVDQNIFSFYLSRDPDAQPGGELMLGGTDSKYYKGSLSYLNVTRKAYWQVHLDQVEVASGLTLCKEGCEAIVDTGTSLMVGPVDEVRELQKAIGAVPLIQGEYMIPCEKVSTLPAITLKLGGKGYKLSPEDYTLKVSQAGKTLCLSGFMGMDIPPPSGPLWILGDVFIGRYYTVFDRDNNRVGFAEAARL
# At least one structure is not confirmed: it was looked up by name or label, or the drawing left a doubt.
# Biological target: cathepsin D (Homo sapiens, UniProt P07339)
# Assay: cathepsin D inhibition assay with fluorogenic substrate (tight-binding kinetics)
# Type: biochemical
# Settings: target implied (cathepsin D)
# Description: Typically, 485 μl of 50 mM Gly-HC1 buffer, pH 3.5 (in the case of cathepsin D), or 100 mM sodium acetate buffer, pH 5.0 (in the case of plasmepsin 2), was mixed with 5 μl of DMSO and 5 μl of titrated protease (final concentration 0.2-10 nM) and incubated 3 min at 37° C. The reaction was initiated by the addition of 5 μl of substrate stock solution in DMSO. Increase in fluorescence intensity at the emission maximum of 487 nm (excitation wavelength was 349 nm) was monitored as a function of time using an Aminco Bowman-2 luminescence spectrometer (SLM Instruments, Inc.).
# The initial rate of hydrolysis was calculated by a second degree polynomial fit using SLM AB2 2.0 operating software. Kinetic parameters were determined by nonlinear regression fitting of initial rate versus substrate concentration data to the Michaelis-Menten equation using the program Enzfitter version 1.05 (Leatherbarrow, R. J. 1987. Enzfitter, a program for non-linear regression analysis. Elsevier Scientific, New York).
# For inhibition studies inhibitors were prepared as stock solutions at different concentrations in DMSO. In a typical experiment 485 μl of the appropriate buffer was mixed with 5 μl of inhibitor stock solution and 5 μ of titrated protease (final concentration 0.2-10 nM) and preincubated 3 min at 37° C. The reaction was initiated by the addition of 5 μl of substrate stock solution in DMSO. […]
smiles,measurement,value
CC(C)CC(=O)N[C@H](C(=O)N[C@H](C(=O)N[C@@H](Cc1ccccc1)[C@@H](O)CC(=O)NC(CO)C(C)C)C(C)C)C(C)C (stereo partly shown),IC50,600 nM
